# Assay: Extent of quinol oxidation by H2O2
Molecule,"decrease in intensity of quinol hydroxyl 1H NMR peaks upon oxidation (4.0 equiv H2O2, MeCN-d3, after Zn(ClO4)2)","oxidation of the H2qtp1 ligand (4.0 equiv H2O2, MeCN-d3, from integrated quinol peaks)",quinols oxidized to para-quinones by excess H2O2 (excess H2O2),"sensor oxidized by excess H2O2, from relaxivity results (excess H2O2)","quinols oxidized (4 equiv. H2O2, CD3CN, 1 h)"
"CC#N.O=S(=O)([O-])C(F)(F)F.O=S(=O)([O-])C(F)(F)F.[Mn+2].[O-]c1ccc(O)cc1CN(CCN(Cc1ccccn1)Cc1ccccn1)Cc1ccccn1 [Complex 1, Acetonitrilo(N-(2,5-dihydroxy-benzyl)-N,N′,N′-tris(2-pyridinylmethyl)-1,2-ethanediamine)manganese(II) triflate]",approximately 45%,~55%,~70%,~70%,–
"cis-Dibromo(N,N′-bis(2,5-dihydroxybenzyl)-N,N′-bis(2-pyridinylmethyl)-1,2-ethanediamine)manganese(II) [Complex 3]",–,–,~70%,–,50%
